No constants are given. Whether binding was seen depends on the method and setting. Some entries that bind do so weakly or less than the wild type.
T1: Xenopus laevis XCAP-H (Xenopus laevis) (UniProt O13067)
T1 sequence: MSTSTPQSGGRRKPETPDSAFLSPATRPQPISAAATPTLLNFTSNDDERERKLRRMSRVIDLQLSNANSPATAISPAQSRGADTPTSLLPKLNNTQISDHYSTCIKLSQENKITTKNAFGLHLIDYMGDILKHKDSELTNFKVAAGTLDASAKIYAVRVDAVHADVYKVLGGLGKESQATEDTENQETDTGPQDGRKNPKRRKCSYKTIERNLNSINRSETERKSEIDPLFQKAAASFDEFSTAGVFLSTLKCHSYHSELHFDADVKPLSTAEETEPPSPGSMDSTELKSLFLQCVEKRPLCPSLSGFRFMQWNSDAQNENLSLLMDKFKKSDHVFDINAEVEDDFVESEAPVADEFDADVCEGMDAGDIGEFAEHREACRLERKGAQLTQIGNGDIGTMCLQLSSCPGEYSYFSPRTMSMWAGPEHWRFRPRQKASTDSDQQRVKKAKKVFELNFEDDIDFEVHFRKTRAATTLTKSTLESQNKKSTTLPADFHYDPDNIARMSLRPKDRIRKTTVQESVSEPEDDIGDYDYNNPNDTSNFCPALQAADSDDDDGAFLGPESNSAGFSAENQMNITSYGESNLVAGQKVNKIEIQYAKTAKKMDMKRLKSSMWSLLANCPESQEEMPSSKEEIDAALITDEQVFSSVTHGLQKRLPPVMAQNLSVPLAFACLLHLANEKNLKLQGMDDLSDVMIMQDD

Sequences of proteins named here, by UniProt entry; tags and fusion partners are left off.
UniProt P50532: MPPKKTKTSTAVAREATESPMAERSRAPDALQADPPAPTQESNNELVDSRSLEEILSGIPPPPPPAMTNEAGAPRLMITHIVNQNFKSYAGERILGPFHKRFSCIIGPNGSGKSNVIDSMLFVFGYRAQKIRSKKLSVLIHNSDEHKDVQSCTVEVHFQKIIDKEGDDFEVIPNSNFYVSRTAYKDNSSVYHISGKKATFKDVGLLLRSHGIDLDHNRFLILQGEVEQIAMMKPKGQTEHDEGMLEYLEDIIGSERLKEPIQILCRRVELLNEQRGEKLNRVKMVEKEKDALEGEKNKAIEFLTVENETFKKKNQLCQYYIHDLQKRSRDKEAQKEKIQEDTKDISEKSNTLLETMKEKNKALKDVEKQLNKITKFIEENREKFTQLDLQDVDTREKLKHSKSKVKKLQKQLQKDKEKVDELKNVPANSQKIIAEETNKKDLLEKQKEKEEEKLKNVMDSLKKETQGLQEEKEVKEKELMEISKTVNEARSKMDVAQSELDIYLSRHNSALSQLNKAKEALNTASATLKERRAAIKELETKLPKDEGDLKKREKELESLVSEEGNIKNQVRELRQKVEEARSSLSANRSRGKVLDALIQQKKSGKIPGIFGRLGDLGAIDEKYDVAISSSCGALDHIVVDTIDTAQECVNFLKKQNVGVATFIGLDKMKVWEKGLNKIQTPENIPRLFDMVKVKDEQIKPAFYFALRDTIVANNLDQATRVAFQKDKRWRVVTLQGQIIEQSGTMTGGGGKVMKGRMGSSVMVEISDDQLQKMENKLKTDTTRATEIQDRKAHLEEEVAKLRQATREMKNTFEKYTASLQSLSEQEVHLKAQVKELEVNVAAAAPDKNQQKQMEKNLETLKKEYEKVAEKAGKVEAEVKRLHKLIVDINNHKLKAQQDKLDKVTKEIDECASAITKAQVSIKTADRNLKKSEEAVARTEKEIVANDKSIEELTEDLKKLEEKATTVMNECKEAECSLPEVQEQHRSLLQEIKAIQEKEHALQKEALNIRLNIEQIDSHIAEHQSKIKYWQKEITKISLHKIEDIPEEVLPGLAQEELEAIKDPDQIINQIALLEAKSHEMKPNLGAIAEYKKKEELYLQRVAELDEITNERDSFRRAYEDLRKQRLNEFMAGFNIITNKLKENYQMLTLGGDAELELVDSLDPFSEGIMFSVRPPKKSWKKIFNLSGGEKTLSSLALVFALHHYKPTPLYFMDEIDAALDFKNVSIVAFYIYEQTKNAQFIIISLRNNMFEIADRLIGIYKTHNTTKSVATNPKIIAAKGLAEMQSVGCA
UniProt Q9YHY6: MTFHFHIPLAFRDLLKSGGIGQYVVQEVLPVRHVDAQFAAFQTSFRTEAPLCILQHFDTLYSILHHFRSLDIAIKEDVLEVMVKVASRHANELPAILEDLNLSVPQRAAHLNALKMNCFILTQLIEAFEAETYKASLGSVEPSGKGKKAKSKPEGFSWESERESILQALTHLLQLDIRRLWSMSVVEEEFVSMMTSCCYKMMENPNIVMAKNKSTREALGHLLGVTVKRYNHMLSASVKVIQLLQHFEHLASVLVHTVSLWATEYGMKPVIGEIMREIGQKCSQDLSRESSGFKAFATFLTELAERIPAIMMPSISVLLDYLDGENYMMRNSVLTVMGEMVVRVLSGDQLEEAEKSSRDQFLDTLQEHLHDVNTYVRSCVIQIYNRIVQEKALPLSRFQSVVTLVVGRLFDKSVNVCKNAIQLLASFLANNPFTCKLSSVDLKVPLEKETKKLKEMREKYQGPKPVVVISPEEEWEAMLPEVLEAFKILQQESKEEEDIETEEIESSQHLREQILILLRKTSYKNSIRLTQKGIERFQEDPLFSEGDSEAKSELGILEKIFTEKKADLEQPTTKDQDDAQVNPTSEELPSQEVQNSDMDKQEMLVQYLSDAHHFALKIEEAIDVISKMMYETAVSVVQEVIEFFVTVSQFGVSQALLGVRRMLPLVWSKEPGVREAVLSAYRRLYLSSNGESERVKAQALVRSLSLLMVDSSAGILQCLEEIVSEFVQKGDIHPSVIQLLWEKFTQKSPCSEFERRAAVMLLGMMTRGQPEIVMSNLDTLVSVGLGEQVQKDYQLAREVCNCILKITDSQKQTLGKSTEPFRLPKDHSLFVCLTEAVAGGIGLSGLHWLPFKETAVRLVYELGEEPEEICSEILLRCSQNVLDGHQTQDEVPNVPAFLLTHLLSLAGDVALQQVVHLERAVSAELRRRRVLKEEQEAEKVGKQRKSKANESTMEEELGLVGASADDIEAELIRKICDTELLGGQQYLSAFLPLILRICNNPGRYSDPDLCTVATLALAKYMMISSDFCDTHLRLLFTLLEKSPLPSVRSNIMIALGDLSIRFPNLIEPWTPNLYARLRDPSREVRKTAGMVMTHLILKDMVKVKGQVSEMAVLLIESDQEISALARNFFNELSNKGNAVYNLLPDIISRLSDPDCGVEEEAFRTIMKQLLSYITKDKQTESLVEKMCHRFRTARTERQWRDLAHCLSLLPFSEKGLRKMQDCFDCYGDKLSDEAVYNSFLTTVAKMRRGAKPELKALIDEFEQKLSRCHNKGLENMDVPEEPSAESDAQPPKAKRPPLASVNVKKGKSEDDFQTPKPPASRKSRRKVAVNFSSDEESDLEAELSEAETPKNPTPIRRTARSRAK
UniProt P50533: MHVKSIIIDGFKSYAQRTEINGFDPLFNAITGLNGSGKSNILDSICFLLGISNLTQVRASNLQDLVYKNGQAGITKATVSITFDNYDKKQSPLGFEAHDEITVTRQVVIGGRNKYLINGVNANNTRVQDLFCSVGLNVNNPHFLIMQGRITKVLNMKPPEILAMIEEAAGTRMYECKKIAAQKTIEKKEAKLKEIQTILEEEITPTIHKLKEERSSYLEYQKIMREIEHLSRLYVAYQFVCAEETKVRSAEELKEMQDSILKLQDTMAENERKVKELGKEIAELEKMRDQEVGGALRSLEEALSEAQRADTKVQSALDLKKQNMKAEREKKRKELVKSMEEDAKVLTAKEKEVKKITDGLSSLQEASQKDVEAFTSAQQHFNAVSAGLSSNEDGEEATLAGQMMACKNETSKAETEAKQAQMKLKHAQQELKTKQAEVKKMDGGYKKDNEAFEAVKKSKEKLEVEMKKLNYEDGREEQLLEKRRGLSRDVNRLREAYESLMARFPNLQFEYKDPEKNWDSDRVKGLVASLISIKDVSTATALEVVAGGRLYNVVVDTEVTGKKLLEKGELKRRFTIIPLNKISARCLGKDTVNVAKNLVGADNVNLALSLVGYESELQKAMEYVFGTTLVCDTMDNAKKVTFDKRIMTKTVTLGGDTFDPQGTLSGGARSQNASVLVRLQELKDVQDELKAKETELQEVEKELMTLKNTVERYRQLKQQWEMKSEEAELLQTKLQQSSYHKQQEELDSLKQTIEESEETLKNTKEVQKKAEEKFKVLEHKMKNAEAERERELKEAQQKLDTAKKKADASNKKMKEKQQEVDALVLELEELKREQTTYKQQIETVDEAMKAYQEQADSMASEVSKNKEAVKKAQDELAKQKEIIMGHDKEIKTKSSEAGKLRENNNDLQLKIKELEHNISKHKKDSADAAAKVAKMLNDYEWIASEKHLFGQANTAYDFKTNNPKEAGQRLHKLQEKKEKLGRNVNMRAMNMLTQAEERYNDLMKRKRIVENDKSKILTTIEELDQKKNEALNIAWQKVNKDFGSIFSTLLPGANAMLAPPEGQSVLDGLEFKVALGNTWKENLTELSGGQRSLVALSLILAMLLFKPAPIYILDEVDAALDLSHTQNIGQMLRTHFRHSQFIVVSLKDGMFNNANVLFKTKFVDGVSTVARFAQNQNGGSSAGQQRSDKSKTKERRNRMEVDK

B1: Xenopus laevis XCAP-G (protein, UniProt Q9YHB5 1-1034)
chain: MVKEGKAMEIKEAFDLSQKAHQNHAKLVSSLRAAYNKTEDKSIFLEEFIHFLKFPLIVYRREPAVERVMDFVAKFVTSFHNSGGENEEEADEENSPVNCLFNFLLQSHGASSMAVRFRVCQLINKLLVNLPENAQIDDDLFDKIHDAMLIRLKDRVPNVRIQAVLALARLQDPSDPDCPVSNAYVHLLENDSNPEVRRAVLTCIAPSAKSLPKIVGRTMDVKEPVRKLAYQVLSEKVHIRALTIAQRVKLLQQGLNDRSAAVKDVIQKKLIQAWLQYSEGDVLDLLHRLDVENSPEVSLSALNALFSVSPVGELVQNCKNLDERKLIPVETLTPENVLYWRALCEHLKSKGDEGEAALENILPEPAVYARYLSSYLQTLPVLSEDQRADMTKIEDLMTKEFIGQQLILTIGCLDTSEEGGRKRLLAVLQEILVMQNTPTSLISSLAELLLFVLKDDDKRIQTVAEIISELREPIVTVDNPKDAAQSRKLQLKLADVKVQLIEAKQALEDSLTNEDYSRASELKEKVKELESLKTQLIKEAEEPEMKEIRVEKNDPETLLKCLIMCNELLKHLSLSKGLGGTLNEICESLILPGITNVHPSVRNMAVLCIGCCALQNKDFARQHLPLLLQILQLDEVKVKNSALNAVFDMLLLFGMDILKSKPTNPDDSQCKAQENADEDISEQEKPGSVDENLTNEEVQEETATVNGILHLFSGFLDSEIAEIRTETAEGLVKLMFSGRLISAKLLSRLILLWYNPVTEEDTKLRHCLGVFFPIFAYSCRSNQECFAEAFLPTLQTLFNAPASSPLADVDVANVAELLVDLTRPSGLNPQNKQSQDYQAAMVHDGLAIKICNEILKDPTAPDVRIYAKALCSLELSRENSTDLLPLLDCAVEDVTDKVCERAIEKVRSQLRSGREEHRVSKETEPQVSKETEDRTNLQENEEGKQKDEANCDENTDTVKEKAARGKATKGRRKGPAAAATRRKASKAEEAEAEMERQEESQCVPVNTRPSRRAKTAALEKTKKNLSKLLNEEAN

Target: T1, Xenopus laevis XCAP-H (Xenopus laevis)
Assay: affinity co-purification; five condensin I subunits co-expressed in High-Five cells; purified on a Strep-Tactin column by the Twin-Strep tag of XCAP-H, then by SEC (Superose 6 increase)

binding, binds:
Xenopus laevis XCAP-C/Smc4 (from UniProt P50532 1-1290), Xenopus laevis XCAP-D2 (from UniProt Q9YHY6 1-1364), Xenopus laevis XCAP-E/Smc2 (from UniProt P50533 1-1203), B1

Source: paper PMC10962838
